Structures can show the parent of a compound that is named as a salt. Some of the results follow. The calls rarely recur for the same compound in another form.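 Kinases, fused to nanoluciferase, were expressed in K562 cells; luminescence was measured every 4 h from 2 to 18 h as percent of control (DMSO = 100%, positive control = 0%). A time point is decreased if signal falls significantly (2 sigma). Hits were called by the authors by a rule that is not shown; the count of time points alone does not decide it.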
Tests used:
Experiment in all cases: kinase-Nluc reporter destabilization hit call (1 = scored as downregulated) (binary); higher = compound decreases kinase abundance
Conditions in all cases: K562; 2-18 h
[1] = molecular target: ERN1 (UniProt O75460)
[2] = molecular target: FGFR1 (UniProt P11362)
[3] = molecular target: FGFR2 (UniProt P21802)
[4] = molecular target: FGFR3 (UniProt P22607)
[5] = molecular target: FGR (UniProt P09769)
[6] = molecular target: FLT3 (UniProt P36888)
[7] = molecular target: FYN (UniProt P06241)
[8] = molecular target: GSK3A (UniProt P49840)
[9] = molecular target: HER2 (UniProt P04626)
[10] = molecular target: INSRR (UniProt P14616)

The chains behind the UniProt entries cited, without tags or fusion partners. Where a name states a change or a piece, a line headed by the entry shows the natural chain unless it says otherwise.
UniProt O75460: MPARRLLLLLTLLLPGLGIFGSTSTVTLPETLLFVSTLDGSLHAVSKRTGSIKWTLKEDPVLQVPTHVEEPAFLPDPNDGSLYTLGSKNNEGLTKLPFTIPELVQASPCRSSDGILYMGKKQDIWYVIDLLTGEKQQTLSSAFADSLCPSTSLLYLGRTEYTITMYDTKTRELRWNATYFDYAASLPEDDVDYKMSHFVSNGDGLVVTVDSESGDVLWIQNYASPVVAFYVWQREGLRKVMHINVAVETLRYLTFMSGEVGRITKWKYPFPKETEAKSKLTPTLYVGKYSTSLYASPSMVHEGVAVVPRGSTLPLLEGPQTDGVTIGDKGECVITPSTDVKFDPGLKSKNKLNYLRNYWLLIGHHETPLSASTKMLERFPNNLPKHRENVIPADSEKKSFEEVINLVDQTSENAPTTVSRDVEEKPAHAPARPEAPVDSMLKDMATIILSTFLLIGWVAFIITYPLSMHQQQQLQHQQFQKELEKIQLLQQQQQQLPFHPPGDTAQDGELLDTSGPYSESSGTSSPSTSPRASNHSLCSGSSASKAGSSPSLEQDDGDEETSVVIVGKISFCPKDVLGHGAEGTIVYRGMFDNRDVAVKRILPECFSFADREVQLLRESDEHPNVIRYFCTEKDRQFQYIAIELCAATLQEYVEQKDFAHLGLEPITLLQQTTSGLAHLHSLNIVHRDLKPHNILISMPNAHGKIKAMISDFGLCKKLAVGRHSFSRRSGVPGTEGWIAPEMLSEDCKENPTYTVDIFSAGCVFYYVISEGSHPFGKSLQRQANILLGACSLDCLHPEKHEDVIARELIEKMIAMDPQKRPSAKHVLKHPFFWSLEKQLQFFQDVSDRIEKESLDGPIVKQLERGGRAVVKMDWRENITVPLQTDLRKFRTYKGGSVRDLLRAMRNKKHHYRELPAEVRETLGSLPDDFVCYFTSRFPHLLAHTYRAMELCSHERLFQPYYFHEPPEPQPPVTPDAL
UniProt P11362, whole entry, looked up: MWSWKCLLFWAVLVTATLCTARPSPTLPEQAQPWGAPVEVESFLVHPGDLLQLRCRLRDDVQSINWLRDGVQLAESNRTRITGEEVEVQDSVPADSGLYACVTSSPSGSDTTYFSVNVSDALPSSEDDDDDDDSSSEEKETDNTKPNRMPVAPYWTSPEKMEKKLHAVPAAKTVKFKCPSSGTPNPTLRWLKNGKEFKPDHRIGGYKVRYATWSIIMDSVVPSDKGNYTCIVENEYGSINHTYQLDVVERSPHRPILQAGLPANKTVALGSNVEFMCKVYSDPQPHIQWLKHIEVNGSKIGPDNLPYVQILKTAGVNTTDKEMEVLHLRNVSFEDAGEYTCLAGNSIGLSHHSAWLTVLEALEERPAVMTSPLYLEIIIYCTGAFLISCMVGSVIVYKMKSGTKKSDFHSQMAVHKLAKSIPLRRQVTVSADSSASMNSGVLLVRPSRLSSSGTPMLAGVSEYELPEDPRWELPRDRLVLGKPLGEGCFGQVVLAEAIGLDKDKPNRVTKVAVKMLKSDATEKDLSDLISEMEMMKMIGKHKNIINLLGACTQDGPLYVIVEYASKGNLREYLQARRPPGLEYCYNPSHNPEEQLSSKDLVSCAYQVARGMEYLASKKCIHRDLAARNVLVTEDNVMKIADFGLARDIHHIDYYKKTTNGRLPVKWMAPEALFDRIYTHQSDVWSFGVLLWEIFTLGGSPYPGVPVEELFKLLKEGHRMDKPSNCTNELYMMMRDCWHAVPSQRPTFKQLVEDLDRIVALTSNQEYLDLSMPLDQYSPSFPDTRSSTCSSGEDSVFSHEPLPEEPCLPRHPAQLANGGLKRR
UniProt P21802, whole entry, looked up: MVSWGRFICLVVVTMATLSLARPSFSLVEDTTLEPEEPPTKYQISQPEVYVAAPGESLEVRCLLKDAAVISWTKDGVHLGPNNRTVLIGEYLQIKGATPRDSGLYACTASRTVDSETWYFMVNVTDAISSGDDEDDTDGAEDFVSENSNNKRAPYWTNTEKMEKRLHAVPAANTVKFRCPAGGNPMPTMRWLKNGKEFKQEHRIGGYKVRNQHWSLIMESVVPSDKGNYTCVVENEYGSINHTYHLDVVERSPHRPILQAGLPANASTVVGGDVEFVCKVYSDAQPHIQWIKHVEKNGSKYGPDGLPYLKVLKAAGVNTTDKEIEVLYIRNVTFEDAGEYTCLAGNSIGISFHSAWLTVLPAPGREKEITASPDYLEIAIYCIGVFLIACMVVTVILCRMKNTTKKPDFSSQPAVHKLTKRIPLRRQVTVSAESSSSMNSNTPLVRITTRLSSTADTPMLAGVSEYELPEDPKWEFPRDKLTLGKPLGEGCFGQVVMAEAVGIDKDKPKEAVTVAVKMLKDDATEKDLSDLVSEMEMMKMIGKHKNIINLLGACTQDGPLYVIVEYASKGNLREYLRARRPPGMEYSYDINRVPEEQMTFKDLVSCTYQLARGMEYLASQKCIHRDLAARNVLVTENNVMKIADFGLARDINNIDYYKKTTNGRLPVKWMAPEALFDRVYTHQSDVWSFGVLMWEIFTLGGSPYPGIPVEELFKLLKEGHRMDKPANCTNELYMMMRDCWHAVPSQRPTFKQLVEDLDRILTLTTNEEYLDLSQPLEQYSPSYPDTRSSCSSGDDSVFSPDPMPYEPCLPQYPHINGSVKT
UniProt P22607, whole entry, looked up: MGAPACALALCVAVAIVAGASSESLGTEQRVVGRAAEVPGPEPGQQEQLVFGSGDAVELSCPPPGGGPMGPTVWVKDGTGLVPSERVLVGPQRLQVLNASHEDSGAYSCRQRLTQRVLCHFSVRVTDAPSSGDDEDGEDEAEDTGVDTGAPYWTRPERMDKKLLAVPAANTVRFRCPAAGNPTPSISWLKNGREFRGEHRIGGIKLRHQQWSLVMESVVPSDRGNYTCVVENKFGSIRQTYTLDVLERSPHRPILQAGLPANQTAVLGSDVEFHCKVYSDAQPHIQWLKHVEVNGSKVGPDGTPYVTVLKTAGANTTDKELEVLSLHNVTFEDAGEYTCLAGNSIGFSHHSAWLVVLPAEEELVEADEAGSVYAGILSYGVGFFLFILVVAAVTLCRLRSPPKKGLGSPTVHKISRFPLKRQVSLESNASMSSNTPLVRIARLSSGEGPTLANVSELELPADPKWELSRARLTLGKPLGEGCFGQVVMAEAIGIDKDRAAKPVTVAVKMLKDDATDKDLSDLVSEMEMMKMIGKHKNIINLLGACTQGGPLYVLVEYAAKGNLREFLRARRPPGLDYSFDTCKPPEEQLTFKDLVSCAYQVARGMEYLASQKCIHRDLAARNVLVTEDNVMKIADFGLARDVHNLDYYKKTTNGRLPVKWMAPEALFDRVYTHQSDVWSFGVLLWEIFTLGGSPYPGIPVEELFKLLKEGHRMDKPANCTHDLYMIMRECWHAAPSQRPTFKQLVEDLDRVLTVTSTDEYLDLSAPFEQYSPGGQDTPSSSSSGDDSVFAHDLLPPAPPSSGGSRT
UniProt P36888, whole entry: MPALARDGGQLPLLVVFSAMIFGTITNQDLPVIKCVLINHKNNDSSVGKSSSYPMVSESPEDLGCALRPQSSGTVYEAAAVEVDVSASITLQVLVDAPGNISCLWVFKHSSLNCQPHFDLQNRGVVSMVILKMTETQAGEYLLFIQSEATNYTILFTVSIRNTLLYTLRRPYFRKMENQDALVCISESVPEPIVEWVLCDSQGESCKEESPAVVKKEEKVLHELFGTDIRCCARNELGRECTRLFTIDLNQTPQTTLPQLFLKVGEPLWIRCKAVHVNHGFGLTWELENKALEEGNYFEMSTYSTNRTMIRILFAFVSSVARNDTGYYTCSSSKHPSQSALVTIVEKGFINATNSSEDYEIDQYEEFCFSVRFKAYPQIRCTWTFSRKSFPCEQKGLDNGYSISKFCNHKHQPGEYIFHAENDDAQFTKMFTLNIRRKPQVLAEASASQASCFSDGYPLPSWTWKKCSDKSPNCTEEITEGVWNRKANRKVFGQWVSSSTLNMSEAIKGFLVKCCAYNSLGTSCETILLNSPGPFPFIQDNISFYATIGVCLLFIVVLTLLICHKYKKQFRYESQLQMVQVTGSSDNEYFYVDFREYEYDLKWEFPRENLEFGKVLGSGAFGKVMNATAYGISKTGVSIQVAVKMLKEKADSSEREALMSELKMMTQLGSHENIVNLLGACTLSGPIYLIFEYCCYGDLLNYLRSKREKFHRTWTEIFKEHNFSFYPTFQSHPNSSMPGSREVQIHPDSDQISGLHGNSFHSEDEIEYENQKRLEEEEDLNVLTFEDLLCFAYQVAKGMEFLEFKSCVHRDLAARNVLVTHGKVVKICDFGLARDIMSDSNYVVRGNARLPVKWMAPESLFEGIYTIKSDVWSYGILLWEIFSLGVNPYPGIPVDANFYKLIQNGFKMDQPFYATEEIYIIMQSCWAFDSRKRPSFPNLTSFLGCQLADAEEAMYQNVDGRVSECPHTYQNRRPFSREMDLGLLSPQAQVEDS
UniProt P49840: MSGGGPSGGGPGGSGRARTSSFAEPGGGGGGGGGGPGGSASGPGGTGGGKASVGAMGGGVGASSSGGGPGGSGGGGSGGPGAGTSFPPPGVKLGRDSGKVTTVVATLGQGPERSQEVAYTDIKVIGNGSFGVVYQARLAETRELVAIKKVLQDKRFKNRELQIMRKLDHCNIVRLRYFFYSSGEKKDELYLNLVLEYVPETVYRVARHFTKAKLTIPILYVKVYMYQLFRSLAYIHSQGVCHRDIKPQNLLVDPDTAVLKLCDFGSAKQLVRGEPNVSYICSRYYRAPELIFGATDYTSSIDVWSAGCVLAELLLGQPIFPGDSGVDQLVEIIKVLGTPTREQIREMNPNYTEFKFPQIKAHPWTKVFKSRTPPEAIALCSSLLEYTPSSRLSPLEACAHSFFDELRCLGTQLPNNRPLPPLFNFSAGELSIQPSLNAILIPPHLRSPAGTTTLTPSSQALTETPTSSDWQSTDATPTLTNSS
UniProt P14616: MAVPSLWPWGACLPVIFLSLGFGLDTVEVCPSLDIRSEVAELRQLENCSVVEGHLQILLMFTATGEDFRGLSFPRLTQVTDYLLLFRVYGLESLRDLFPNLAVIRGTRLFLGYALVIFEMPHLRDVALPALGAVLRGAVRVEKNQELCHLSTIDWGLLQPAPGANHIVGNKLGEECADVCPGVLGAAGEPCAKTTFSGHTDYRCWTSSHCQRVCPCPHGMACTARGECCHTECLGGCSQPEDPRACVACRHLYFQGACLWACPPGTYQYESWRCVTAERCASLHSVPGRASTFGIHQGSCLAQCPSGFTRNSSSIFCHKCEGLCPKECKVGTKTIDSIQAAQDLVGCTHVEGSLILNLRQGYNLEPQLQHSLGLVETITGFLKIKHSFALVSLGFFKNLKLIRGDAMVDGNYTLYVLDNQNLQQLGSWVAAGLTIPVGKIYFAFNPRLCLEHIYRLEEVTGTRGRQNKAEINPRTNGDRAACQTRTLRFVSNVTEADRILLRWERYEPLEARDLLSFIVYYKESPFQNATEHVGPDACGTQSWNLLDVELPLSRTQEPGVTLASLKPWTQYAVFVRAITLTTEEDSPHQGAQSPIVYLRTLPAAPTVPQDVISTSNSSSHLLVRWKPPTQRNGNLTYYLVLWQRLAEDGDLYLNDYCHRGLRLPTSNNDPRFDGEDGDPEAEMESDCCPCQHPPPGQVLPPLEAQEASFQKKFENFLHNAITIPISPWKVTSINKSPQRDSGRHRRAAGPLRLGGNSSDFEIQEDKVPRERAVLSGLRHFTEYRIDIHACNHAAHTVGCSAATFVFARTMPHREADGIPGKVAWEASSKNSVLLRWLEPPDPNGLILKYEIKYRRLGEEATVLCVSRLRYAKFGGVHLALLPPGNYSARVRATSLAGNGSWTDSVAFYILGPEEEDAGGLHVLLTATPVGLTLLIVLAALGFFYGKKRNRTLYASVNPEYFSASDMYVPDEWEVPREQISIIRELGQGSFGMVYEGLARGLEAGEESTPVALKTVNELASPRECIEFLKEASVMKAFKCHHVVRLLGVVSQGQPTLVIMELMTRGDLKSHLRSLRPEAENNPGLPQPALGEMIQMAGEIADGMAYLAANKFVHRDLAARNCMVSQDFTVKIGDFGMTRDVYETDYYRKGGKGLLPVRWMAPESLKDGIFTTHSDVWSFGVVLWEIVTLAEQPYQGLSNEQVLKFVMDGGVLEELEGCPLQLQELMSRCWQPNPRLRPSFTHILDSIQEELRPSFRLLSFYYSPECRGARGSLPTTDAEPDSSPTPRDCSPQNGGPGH

Compound	kinase-Nluc reporter destabilization hit call [1]	kinase-Nluc reporter destabilization hit call [2]	kinase-Nluc reporter destabilization hit call [3]	kinase-Nluc reporter destabilization hit call [4]	kinase-Nluc reporter destabilization hit call [5]	kinase-Nluc reporter destabilization hit call [6]	kinase-Nluc reporter destabilization hit call [7]	kinase-Nluc reporter destabilization hit call [8]	kinase-Nluc reporter destabilization hit call [9]	kinase-Nluc reporter destabilization hit call [10]
CC(C)n1cnc2c(Nc3cccc(Cl)c3)nc(NCCO)nc21 (10 µM)	inactive: 0	inactive: 0	inactive: 0	inactive: 0	inactive: 0	inactive: 0	inactive: 0	inactive: 0	inactive: 0	inactive: 0
N#C/C(=C\c1ccc2oc(=O)[nH]c2c1)C(=O)c1ccc(O)c(O)c1 (10 µM)	inactive: 0	inactive: 0	inactive: 0	inactive: 0	inactive: 0	inactive: 0	inactive: 0	inactive: 0	inactive: 0	inactive: 0
Cc1ccc(-c2nn(C(C)(C)CNC(=O)c3ccncc3)c3ncnc(N)c23)cc1 (2.5 µM)	inactive: 0	inactive: 0	inactive: 0	inactive: 0	inactive: 0	inactive: 0	inactive: 0	inactive: 0	inactive: 0	inactive: 0
COc1ccc(CCNc2ncc3c(=O)n(-c4cccc(F)c4)c(=O)[nH]c3n2)cc1OC (2 µM)	inactive: 0	inactive: 0	inactive: 0	inactive: 0	inactive: 0	inactive: 0	inactive: 0	inactive: 0	inactive: 0	inactive: 0
C=CC(=O)Nc1cccc(Oc2nc(Nc3ccc(N4CCN(C)CC4)cc3)nc3ccoc23)c1 [Poseltinib] (10 µM)	inactive: 0	inactive: 0	inactive: 0	inactive: 0	inactive: 0	inactive: 0	inactive: 0	inactive: 0	active: 1	inactive: 0
Cc1cc(C(C)Nc2ccccc2)c2nc(N3CCOCC3)cc(=O)n2c1 (stereo not given) (10 µM)	inactive: 0	inactive: 0	inactive: 0	inactive: 0	inactive: 0	inactive: 0	inactive: 0	inactive: 0	inactive: 0	inactive: 0
C=CC(=O)N1CCC(Oc2cc3c(Nc4ccc(Cl)c(Cl)c4F)ncnc3cc2OC)CC1 [Poziotinib] (2.5 µM)	inactive: 0	inactive: 0	inactive: 0	inactive: 0	inactive: 0	inactive: 0	inactive: 0	inactive: 0	inactive: 0	inactive: 0
CN(C)Cc1cccc(N=C(c2ccccc2)c2c(O)[nH]c3cc(C(N)=O)ccc23)c1 (10 µM)	inactive: 0	inactive: 0	inactive: 0	inactive: 0	inactive: 0	inactive: 0	inactive: 0	inactive: 0	inactive: 0	inactive: 0
COC(=O)[C@@]1(C)CC[C@]2(C(=O)O)CC[C@]3(C)C(=CC[C@@H]4[C@@]5(C)C[C@H](O)[C@H](O[C@@H]6OC[C@@H](O[C@@H]7O[C@H](CO)[C@@H](O)[C@H](O)[C@H]7O)[C@H](O)[C@H]6O)[C@@](C)(CO)[C@@H]5CC[C@]43C)[C@@H]2C1 [Esculentoside A] (10 µM)	inactive: 0	inactive: 0	inactive: 0	inactive: 0	inactive: 0	inactive: 0	inactive: 0	inactive: 0	inactive: 0	inactive: 0
Nc1ncc(-c2ccc(C(=O)N3CCNCC3)cc2)nc1-c1ccc(C(F)(F)F)cc1 (10 µM)	inactive: 0	inactive: 0	inactive: 0	inactive: 0	inactive: 0	inactive: 0	inactive: 0	inactive: 0	inactive: 0	inactive: 0
OCCN(CCO)c1ccc(C(c2ccc(Cl)cc2)c2ccc(N(CCO)CCO)cc2)cc1 (10 µM)	inactive: 0	inactive: 0	inactive: 0	inactive: 0	inactive: 0	inactive: 0	inactive: 0	inactive: 0	inactive: 0	inactive: 0
CC1=C(CC(=O)O)c2cc(F)ccc2/C1=C\c1ccc(C(C)C)cc1 (10 µM)	inactive: 0	inactive: 0	inactive: 0	inactive: 0	inactive: 0	inactive: 0	inactive: 0	inactive: 0	inactive: 0	inactive: 0
CN1CCN(CCCNc2ncc(Cl)c(-c3cc4c(C(=O)NC5CC5)cccc4s3)n2)CC1 (10 µM)	inactive: 0	inactive: 0	inactive: 0	inactive: 0	inactive: 0	inactive: 0	inactive: 0	inactive: 0	inactive: 0	inactive: 0
CCOc1nc(Nc2ccc(C(=O)N3CCOCC3)cc2OC)nc2[nH]ccc12 [LRRK2 inhibitor 1] (2.5 µM)	inactive: 0	inactive: 0	inactive: 0	inactive: 0	inactive: 0	inactive: 0	inactive: 0	inactive: 0	inactive: 0	inactive: 0
Nc1cc(C(F)F)c(-c2nc(N3C4CCC3COC4)nc(N3C4CCC3COC4)n2)cn1 (2.5 µM)	inactive: 0	inactive: 0	inactive: 0	inactive: 0	inactive: 0	inactive: 0	inactive: 0	inactive: 0	inactive: 0	inactive: 0
C=C[C@H]1[C@H](O[C@@H]2O[C@H](CO)[C@@H](O)[C@H](O)[C@H]2OC(=O)c2c(O)cc(O)cc2-c2cccc(O)c2)OC=C2C(=O)OCC[C@H]21 [Amarogentin] (10 µM)	inactive: 0	inactive: 0	inactive: 0	inactive: 0	inactive: 0	inactive: 0	inactive: 0	inactive: 0	inactive: 0	inactive: 0
Nc1cc(C(F)(F)F)c(-c2nc(N3CCOCC3)nc(N3CCOCC3)n2)cn1 [Bimiralisib] (10 µM)	inactive: 0	inactive: 0	inactive: 0	inactive: 0	inactive: 0	inactive: 0	inactive: 0	inactive: 0	inactive: 0	inactive: 0
Cc1ccc(-c2ncn(-c3ccc(Nc4nccc(-c5cccc(N6CCOCC6)c5)n4)cc3)n2)cn1 (10 µM)	inactive: 0	inactive: 0	inactive: 0	inactive: 0	inactive: 0	inactive: 0	inactive: 0	inactive: 0	inactive: 0	inactive: 0
Cc1cc(Nc2nc(N[C@@H](C)c3ncc(F)cn3)ncc2Cl)[nH]n1 (10 µM)	inactive: 0	inactive: 0	inactive: 0	inactive: 0	inactive: 0	inactive: 0	inactive: 0	inactive: 0	inactive: 0	inactive: 0
CCc1ccc(C(=O)COc2ccc(CC3SC(=O)NC3=O)cc2)nc1 (stereo not given) (10 µM)	inactive: 0	inactive: 0	inactive: 0	inactive: 0	inactive: 0	inactive: 0	inactive: 0	inactive: 0	inactive: 0	inactive: 0
O=C1NC(=O)C(c2cn(-c3ccccc3)nc2-c2ccc(F)cc2)N1 (stereo not given) (10 µM)	inactive: 0	inactive: 0	inactive: 0	inactive: 0	inactive: 0	inactive: 0	inactive: 0	inactive: 0	inactive: 0	inactive: 0
C=C(F)C(=O)N1CCN(c2nc(OC[C@@H]3CCCN3C)nc3c2CCN(c2cccc4cccc(Cl)c24)C3)C[C@@H]1CC#N (2.5 µM)	inactive: 0	inactive: 0	inactive: 0	inactive: 0	inactive: 0	inactive: 0	inactive: 0	inactive: 0	inactive: 0	inactive: 0
CCc1cccc(CC)c1NC(=O)c1nn(C)c2c1CCc1cnc(Nc3ccc(C(=O)NC4CCN(C)CC4)cc3OC(F)(F)F)nc1-2 (2 µM)	inactive: 0	inactive: 0	inactive: 0	inactive: 0	inactive: 0	inactive: 0	inactive: 0	inactive: 0	inactive: 0	inactive: 0
N=C(N)NC(=N)NCCc1ccccc1 [Phenformin (hydrochloride)] (10 µM)	inactive: 0	inactive: 0	inactive: 0	inactive: 0	inactive: 0	inactive: 0	inactive: 0	inactive: 0	inactive: 0	inactive: 0
C[C@H]1[C@H](OC(=O)CCC(=O)O)O[C@@H]2O[C@@]3(C)CC[C@H]4[C@H](C)CC[C@@H]1[C@@]24OO3 [Artesunate] (2.5 µM)	inactive: 0	inactive: 0	inactive: 0	inactive: 0	inactive: 0	inactive: 0	inactive: 0	inactive: 0	inactive: 0	inactive: 0
CC(C)(O)[C@@H]1CC[C@](C)([C@H]2[C@@H](O)C[C@@]3(C)[C@@H]4C[C@H](O[C@@H]5O[C@H](CO)[C@@H](O)[C@H](O)[C@H]5O)[C@H]5C(C)(C)[C@@H](O[C@@H]6OC[C@@H](O)[C@H](O)[C@H]6O[C@@H]6O[C@H](CO)[C@@H](O)[C@H](O)[C@H]6O)CC[C@@]56C[C@@]46CC[C@]23C)O1 [Astragaloside VI] (10 µM)	inactive: 0	inactive: 0	inactive: 0	inactive: 0	inactive: 0	inactive: 0	inactive: 0	inactive: 0	inactive: 0	inactive: 0
N#C/C(=C(/N)Sc1ccc(N)cc1)c1ccccc1C(F)(F)F (10 µM)	inactive: 0	inactive: 0	inactive: 0	inactive: 0	inactive: 0	inactive: 0	inactive: 0	inactive: 0	inactive: 0	inactive: 0
Cn1ncc(Cl)c1-c1cc(C(=O)N[C@H](CN)Cc2ccc(F)c(F)c2)sc1Cl (10 µM)	inactive: 0	inactive: 0	inactive: 0	inactive: 0	inactive: 0	inactive: 0	inactive: 0	inactive: 0	inactive: 0	inactive: 0

A second format for two compounds above.
Compound | kinase-Nluc reporter destabilization hit call [1] | kinase-Nluc reporter destabilization hit call [2] | kinase-Nluc reporter destabilization hit call [3] | kinase-Nluc reporter destabilization hit call [4] | kinase-Nluc reporter destabilization hit call [5] | kinase-Nluc reporter destabilization hit call [6] | kinase-Nluc reporter destabilization hit call [7] | kinase-Nluc reporter destabilization hit call [8] | kinase-Nluc reporter destabilization hit call [9] | kinase-Nluc reporter destabilization hit call [10]
Nc1ncc(-c2ccc(C(=O)N3CCNCC3)cc2)nc1-c1ccc(C(F)(F)F)cc1 (10 µM) | inactive: 0 | inactive: 0 | inactive: 0 | inactive: 0 | inactive: 0 | inactive: 0 | inactive: 0 | inactive: 0 | inactive: 0 | inactive: 0
OCCN(CCO)c1ccc(C(c2ccc(Cl)cc2)c2ccc(N(CCO)CCO)cc2)cc1 (10 µM) | inactive: 0 | inactive: 0 | inactive: 0 | inactive: 0 | inactive: 0 | inactive: 0 | inactive: 0 | inactive: 0 | inactive: 0 | inactive: 0

Source: the supplement of paper PMC12823440, “Inhibitors supercharge kinase turnover through native proteolytic circuits” (Nature, 2025)
